The name of at least one read-out is uncertain.
test system: VR callus derived from European grape; assay: Anthocyanin content of grape calluses treated with amino acids; assay type: cell-based, Vitis vinifera L.; conditions: 5 mM amino acid in MS agar medium, 5th day after transfer; positive control 100 μM abscisic acid (ABA) taken as 100%
Procedure: A cell line (VR, management number RPC00003) derived from European grape (Vitis vinifera L.) and stored in the Institute of Physical and Chemical Research, BioResource Center was subcultured on the MS agar medium. The subcultured VR callus was transferred to the MS agar medium containing a 5 mM solution of a different amino acid, and cultured. For the positive control, abscisic acid (ABA), for which coloring-promoting effect is known, was used at 100 μM (Jeong et al., Plant Science, 167:247-252, 2004). On the 5th day after the transfer, the callus was lyophilized and ground, and anthocyanin was extracted from it by using a 1% HCl/MeOH solution. Absorbance of the extract was measured at 530 nm, and the content of anthocyanin was measured by using cyanidine 3-glucoside as a standard substance.
(2) In the same manner as described above, anthocyanin content of grape calluses treated with isoleucine and proline, respectively, were measured.

SMILES | Relative anthocyanin content [%]
N=C(N)NCCC[C@H](N)C(=O)O [Arg, arginine] | 9
NCCCC[C@H](N)C(=O)O [Lys, lysine] | 15
N[C@@H](Cc1c[nH]c2ccccc12)C(=O)O [Trp, tryptophan] | 4

Source: US10226044B2, “Agricultural and horticultural composition and method for cultivating plant” (AJINOMOTO CO., INC., priority 2014, dated 2019)
